The supplement of paper PMC8326762, “A Small Molecule Inhibitor of Pex3–Pex19 Interaction Disrupts Glycosome Biogenesis and Causes Lethality in Trypanosoma brucei” (Frontiers in Cell and Developmental Biology, 2021)
Where a name gives a salt, the structure may show the parent alone. Some of the results follow. The data scatter; read single values as rough.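 Yeast growth was measured as optical density at 600 nm. Two-hybrid strains grew without histidine, so growth depended on Pex3–Pex19 binding. A compound was trypanosome-selective if it reduced growth of the trypanosome-pair strain by over 65% and of the human-pair strain by under 65%.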

Test system: human PEX3-PEX19 interaction (yeast two-hybrid)
Test: growth inhibition of yeast two-hybrid strain reporting HsPex3-HsPex19 interaction, relative to DMSO; higher = stronger inhibition of human Pex3-Pex19 interaction / growth
Details: 100 µM; 24 h; 3-aminotriazole 10 mM

Row | Compound | growth inhibition [%]
1 | CC[C@]1(O)C[C@H]2CN(CCc3c([nH]c4ccccc34)[C@@](C(=O)OC)(c3cc4c(cc3OC)N(C=O)[C@H]3[C@@](O)(C(=O)OC)[C@H](OC(C)=O)[C@]5(CC)C=CCN6CC[C@]43[C@@H]65)C2)C1 [Vincristine sulfate] | 41.9
2 | CC(C)OC(=O)C(C)(C)Oc1ccc(C(=O)c2ccc(Cl)cc2)cc1 [Fenofibrate] | 38.5
3 | COC(=O)C1=C(C)NC(C)=C(C(=O)OCCN(C)Cc2ccccc2)C1c1cccc([N+](=O)[O-])c1 (stereo unspecified) [Nicardipine hydrochloride] | 33.4
4 | N[C@@H](Cc1ccc(O)c(O)c1)C(=O)O [L-3,4-Dihydroxyphenylalanine] | 39.4
5 | CC(=O)NC[C@H]1CN(c2ccc(N3CCOCC3)c(F)c2)C(=O)O1 [Linezolid] | 32
6 | C[C@]12CCC(=O)C=C1CC[C@@H]1[C@@H]2C(=O)C[C@@]2(C)[C@H]1CC[C@]2(O)C(=O)CO [Cortisone] | 2.46
7 | CN1C2CCCC1CC(NC(=O)c1nn(C)c3ccccc13)C2 (stereo unspecified) [Granisetron hydrochloride] | 46.2
8 | Nc1nc(N)c2nc(-c3ccccc3)c(N)nc2n1 [Triamterene] | -3.1
9 | Cc1cn(C2C=CC(CO)O2)c(=O)[nH]c1=O (stereo unspecified) [2',3'-didehydro-3'-deoxythymidine] | 45.2
10 | CCCc1nn(C)c2c(=O)[nH]c(-c3cc(S(=O)(=O)N4CCN(C)CC4)ccc3OCC)nc12 [Sildenafil citrate salt] | 41.5
11 | COc1ccc(C2CNC(=O)C2)cc1OC1CCCC1 (stereo unspecified) [Rolipram] | 45
12 | Oc1ccccc1O [Pyrocatechol] | 44.1
13 | NC/C=C/C(=O)O [(E)-4-amino-2-butenoic acid] | 49.7
14 | O=C(O)[C@H](CC(=O)N1C[C@H]2CCCC[C@H]2C1)Cc1ccccc1 [Mitiglinide calcium] | 49.9
15 | CC(C)NC[C@H](O)COc1ccc(CC(N)=O)cc1 [S(-)-Atenolol] | 24.5
16 | COC(=O)C1=C(C)NC(C)=C(C(=O)OC(C)(C)CN(C)CCC(c2ccccc2)c2ccccc2)C1c1cccc([N+](=O)[O-])c1 (stereo unspecified) [Lercanidipine hydrochloride hemihydrate] | 23.7
17 | CCCCS(=N)(=O)CCC(N)C(=O)O (racemic) [DL-Buthionine-[S,R]-sulfoximine] | 9.21
18 | COc1ccccc1N1CCN(CC(O)COc2cccc3ccccc23)CC1 (stereo unspecified) [Naftopidil dihydrochloride] | 29.6
19 | N[C@H](CO)C(=O)O [D-Serine] | 49.4
20 | O=C(O)C1CCCNC1 (racemic) [(±)-Nipecotic acid] | 39.9
21 | Nc1ccc(CCNc2ncnc3c2ncn3C2OC(CO)C(O)C2O)cc1 (stereo unspecified) [N6-2-(4-Aminophenyl)ethyladenosine] | 41.5
22 | O=C(O)C1=CCNCC1 [Isoguvacine hydrochloride] | 23.5
23 | COc1ccc(CCn2nnnc2C2(c3ccc(C)cc3)CC2)cc1 [Mephetyl tetrazole] | 44.8
24 | O=C(CCNNC(=O)c1ccncc1)NCc1ccccc1 [Nialamide] | 53.6
25 | O=Nc1ccc2oc(=O)ccc2c1 [6-Nitroso-1,2-benzopyrone] | 84.3
26 | O=c1[nH]c(=S)[nH]c(-c2ccccc2)c1Cc1c(O)ccc2ccccc12 [Cambinol] | 6.75

Compounds from the list above that have a nitro group on carbon (two):
Row | Compound | growth inhibition [%]
3 | COC(=O)C1=C(C)NC(C)=C(C(=O)OCCN(C)Cc2ccccc2)C1c1cccc([N+](=O)[O-])c1 (stereo unspecified) [Nicardipine hydrochloride] | 33.4
16 | COC(=O)C1=C(C)NC(C)=C(C(=O)OC(C)(C)CN(C)CCC(c2ccccc2)c2ccccc2)C1c1cccc([N+](=O)[O-])c1 (stereo unspecified) [Lercanidipine hydrochloride hemihydrate] | 23.7
